# Data from PubChem BioAssay AID493014 (National Center for Advancing Translational Sciences (NCATS), 2011).
# This is one part of the list. The main result of the screen is listed elsewhere. These columns were measured beside it and carry no call. Most of these compounds were active or inconclusive in the main read-out, so they are no random draw. Words in brackets tell the shape of the fitted curve; partial curves, single points and poor fits give uncertain potencies.
# Test: qHTS Assay to Find Inhibitors of Chronic Active B-Cell Receptor Signaling
# Conditions: ABC-DLBCL IkBa-CBG/CBR reporter, luminescence ratio (green luciferase fused to IkBa over red control in TMD8 lymphoma cells), 4 h
# Outline: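 Compounds up to 46 uM were incubated four hours with TMD8 cells whose green CBG68 luciferase is fused to IkappaBalpha; red CBR luminescence normalised the signal, and concentration-effect curves were fitted to fusion, red and ratio data.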
# [1] = measured here: CBR red luminescence, cell number
# [2] = measured here: IkBa-CBG green luminescence
Compound,AC50 [1],AC50 [2]
COc1ccc(-c2nc(SC(C)C(=O)NC3CC3)n[nH]2)cc1 (centres undefined),"18.4 µM [falling, partial curve]",–
C[C@H](CO)N1C[C@H](C)[C@@H](CN(C)Cc2ccccc2)Oc2c(NC(=O)C3CCCCC3)cccc2C1=O,"18.4 µM [falling, single point]",–
CCOc1cccc(-c2c(C(=O)N/N=C/c3ccncc3)nnn2-c2nonc2N)c1,"28.2 µM [falling, single point]",–
CC(C)c1nnc(NC(=O)C2CCCN2C(=O)Nc2ccccc2)s1 (centres undefined),"3.98 µM [rising, partial curve, poor fit]",–
CS(=O)(=O)Oc1ccc2c(c1)O/C(=C\C=C\c1ccccc1)C2=O,"0.178 µM [falling, full curve, poor fit]",–
COc1ccc(N)cc1-n1c(C)ccc1C,"35.5 µM [rising, partial curve, poor fit]",–
Cc1cccc2sc(NC(=O)c3ccc(NS(=O)(=O)c4cccs4)cc3)nc12,"9.2 µM [falling, partial curve]",–
Cc1ccc(/C=C/C(=O)NC2=NCCS2)cc1,"14.6 µM [falling, single point]",–
CCn1c(SCC(=O)NC(=O)NCc2ccco2)nc2sc(C)c(C)c2c1=O,–,"0.651 µM [falling, full curve, poor fit]"
COc1ccc(CCC(C)NCC2CCCCC2)cc1 (centres undefined),"5.17 µM [rising, full curve]",–
Cc1ccc(C(C)NC(=S)NCc2ccc(F)cc2)c(C)c1 (centres undefined),"35.5 µM [falling, single point]",–
O=c1ccc2ccc(Oc3ccc([N+](=O)[O-])cc3[N+](=O)[O-])cc2o1,"20.6 µM [falling, single point]","29.1 µM [falling, partial curve, poor fit]"
Cc1ccc(-c2cc(C(=O)Nc3cc(C)on3)c3ccccc3n2)c(C)c1,"2.59 µM [falling, full curve]",–
CCC(C)n1c(SCc2ccc([N+](=O)[O-])cc2)nc2ccsc2c1=O (centres undefined),"25.9 µM [rising, single point]",–
Cc1cc(C)n(CC(C)NC(=O)c2cc(COc3ccc(F)c(F)c3)on2)n1 (centres undefined),"3.55 µM [falling, partial curve, poor fit]",–
Cc1ccc(Sc2cc(C(=O)NCCCN(C)C)c3ccccc3n2)cc1,"35.5 µM [falling, single point]",–
Cc1cc(C)cc(NS(=O)(=O)c2ccc3[nH]cc(C(=O)NCc4ccco4)c(=O)c3c2)c1,"29.1 µM [falling, single point]",–
CCSc1nnc(NC(=O)c2cc(-c3ccccc3O)n[nH]2)s1,"1.26 µM [falling, full curve, poor fit]",–
Cc1nn(-c2ccccc2)c(C)c1NC(=O)COc1ccc2ccccc2c1,"31.6 µM [falling, single point]",–
O=C(O)c1ccc(CNC(=O)c2ccc(C(F)(F)F)cc2)cc1,"35.5 µM [falling, single point]",–
Cc1nc2ccc(NC(=O)c3cccc(S(=O)(=O)N4CC(C)OC(C)C4)c3)cc2s1 (centres undefined),"4.11 µM [rising, single point]",–

Compound,AC50 [1],AC50 [2]
CCOc1ccccc1/C=N/Nc1cc(C)nc2ccc(C)cc12,"0.1 µM [falling, full curve, poor fit]",–
Cc1ccnc(NC(=O)c2cc3ccccc3o2)c1,"2.31 µM [falling, full curve]",–
COc1ccc(OCC(=O)Nc2cccc(C(=O)Nc3ccccc3C(=O)O)c2)cc1,"25.9 µM [falling, partial curve, poor fit]",–
Cc1ccc(/C=N/N2CCN(c3ccccn3)CC2)o1,"12.6 µM [falling, single point]",–
O=C(CCc1ccccc1)NNC(=O)COc1ccc([N+](=O)[O-])cc1,"0.0891 µM [rising, full curve, poor fit]",–
Cc1cc(/C=C(\C#N)C(=O)OCC(=O)Nc2ccc(OC(F)F)cc2)c(C)n1CC(C)C,"1.46 µM [rising, full curve, poor fit]",–
CN(C)CC(CCCCC(CN(C)C)C(=O)c1ccccc1)C(=O)c1ccccc1 (centres undefined),"12.6 µM [falling, partial curve, poor fit]",–
CCc1ccc(S(=O)(=O)c2n[nH]n3c2nc(=O)c2ccccc23)cc1,–,"18.4 µM [rising, partial curve, poor fit]"
COc1ccc(-c2ccc(C(c3c(C)[nH][nH]c3=O)c3c(C)[nH][nH]c3=O)o2)c([N+](=O)[O-])c1,"6.31 µM [falling, partial curve]",–
COC(=O)c1ccc(C2/C(=C(/O)c3ccc(OC)cc3)C(=O)C(=O)N2c2cc(C)on2)cc1 (centres undefined),"11.2 µM [falling, partial curve]",–
CCOC(=O)N1CCN(CC(=O)Nc2c(C(=O)OC)[nH]c3ccccc23)CC1,"20 µM [rising, partial curve, poor fit]",–
NC(=O)N1CCC2(CC1)NC(=O)N(c1ccccc1)N2,"12.6 µM [rising, single point]",–
CC(=O)Nc1ccc(OCC(O)Cn2nc(C)c(C)c2C)cc1 (centres undefined),"4.47 µM [falling, single point]",–
CN(C)C(=O)c1nc2ccccc2s1,"29.1 µM [falling, single point]",–
Cn1c(C2CCCCC2)nc2ccccc21,"15.8 µM [rising, single point]",–
Nc1ccccc1Nc1cccc(C(F)(F)F)c1,"20 µM [falling, partial curve]",–
O=C(Nc1cccnc1)c1ccc(-c2ccc(Cl)cc2)o1,"12.6 µM [falling, single point]",–
COc1ccccc1N1CCN(Cc2cc(Br)c(O)c3ncccc23)CC1,"6.51 µM [rising, single point]",–
COc1ccccc1NC(=O)c1ccc(C(=O)c2ccccc2)o1,"15.8 µM [falling, single point]",–
COc1cccc(CNC(=O)c2ccc3c(c2)N(Cc2ccc(F)cc2Cl)C(=O)c2ccccc2S3)c1,"22.4 µM [falling, partial curve, poor fit]",–
CCOC(=O)[C@H]1[C@H]2COc3ccc(C)cc3[C@@H]2N2C(=O)c3cc(Br)ccc3NC(=O)[C@@]12C,"29.1 µM [falling, single point]",–

Compound,AC50 [1],AC50 [2]
COC(=O)c1ccc2c(=O)n(CCO)c(=S)[nH]c2c1,"18.4 µM [falling, single point]",–
Cc1ccsc1/C=N/NC(=O)c1nnn(-c2nonc2N)c1CN(C)c1ccccc1,"35.5 µM [falling, single point]",–
CC(=O)c1cccc(NC(=O)N2CCCC2C(=O)Nc2cccc(C)c2)c1 (centres undefined),"35.5 µM [rising, single point]",–
CCCOC(=O)C1=C(C)NC2=C(C(=O)CCC2)C1c1ccc(N(C)C)cc1 (centres undefined),"11.2 µM [rising, partial curve, poor fit]",–
COc1ccc(C(=O)N2C(=S)NC(=O)/C2=C\c2ccc(C)cc2)cc1,"1.84 µM [rising, partial curve, poor fit]",–
CC(C)Oc1ccc(/C=C(/NC(=O)c2ccccc2)C(=O)NCCC(=O)O)cc1,"35.5 µM [falling, partial curve, poor fit]",–
N#CCCn1nc(-c2ccccc2)c2ccccc2c1=O,"35.5 µM [rising, single point]",–
CCOC(=O)c1ccc(NC(=O)CN(Cc2ccc(Cl)cc2)S(C)(=O)=O)cc1,"6.51 µM [rising, single point]",–
COCC(C)n1c(SCc2nc(N)nc(Nc3ccccc3C)n2)nc2ccccc2c1=O (centres undefined),"13 µM [rising, partial curve, poor fit]",–
CCCc1[nH]nc2c1C(c1ccc(OC)c(CSC3=NCCS3)c1)C(C#N)=C(N)O2 (centres undefined),"25.1 µM [falling, single point]",–
O=C(C(c1ccccc1)c1ccccc1)N(Cc1ccco1)C1CCS(=O)(=O)C1 (centres undefined),"0.112 µM [rising, full curve, poor fit]",–
CCc1cc(=O)oc2cc(OCC(=O)NCCN3CCOCC3)c(Cl)cc12,"12.6 µM [rising, single point]",–
Cn1c(CCc2ccccc2)nnc1SCC(=O)N1CCCC1,"4.11 µM [rising, single point]",–
CCOC(=O)c1sc(NC(=O)CCN2CCCCCC2)c(C(=O)OCC)c1C,"10 µM [falling, single point]",–
Oc1ccc2ccccc2c1C=NCc1cn2ccsc2n1,"35.5 µM [falling, single point]",–
Cc1ccc(C(=O)Cc2cc3ccccc3oc2=O)c(C)c1,"35.5 µM [rising, single point]",–
Cc1noc(/C=C/N(C)C)c1S(=O)(=O)N(C)Cc1ccc(F)cc1,"35.5 µM [falling, single point]",–
COc1cc(/C=N/Nc2ccc(Cl)nn2)cc(OC)c1O,"0.398 µM [rising, full curve, poor fit]",–
Cc1ccccc1CCN(C(=O)c1csnn1)C(C(=O)NC1CCCC1)c1ccncc1 (centres undefined),"10 µM [falling, partial curve, poor fit]",–
O=C(Nc1cc2c3c(c1)CC(=O)N3CCC2)c1ccccc1Br,"13 µM [falling, partial curve, poor fit]",–
O=[N+]([O-])c1cc2c(cc1CN1CCN(c3ccccc3F)CC1)OCO2,"17.8 µM [rising, partial curve, poor fit]",–

# Look-ups from the entries so far:
# For AC50 [1], CC(=O)c1cccc(NC(=O)N2CCCC2C(=O)Nc2cccc(C)c2)c1 (centres undefined) has 35.5 µM [rising, single point]
# For AC50 [1], Cn1c(CCc2ccccc2)nnc1SCC(=O)N1CCCC1 has 4.11 µM [rising, single point]
# For AC50 [1], COc1ccc(C(=O)N2C(=S)NC(=O)/C2=C\c2ccc(C)cc2)cc1 has 1.84 µM [rising, partial curve, poor fit]

# Two entries from above, as tab-separated lines:
Compound	AC50 [1]	AC50 [2]
NC(=O)N1CCC2(CC1)NC(=O)N(c1ccccc1)N2	12.6 µM [rising, single point]	–
CC(=O)Nc1ccc(OCC(O)Cn2nc(C)c(C)c2C)cc1 (centres undefined)	4.47 µM [falling, single point]	–
